The other results are listed elsewhere or left out.
Key:
Assay in all cases: log2 fold change, soluble protein after heating vs DMSO (PISA); higher = thermal stabilisation; K562 cells, 10 uM, 30 min; active = over 0.2 and 3.5 SD of the protein, either way, in both replicates (recomputed)
[1] = compound: C1=CC=C(C=C1)[C@H](COC2=CC3=C(C=C2)NC(=O)N3)NC(=O)C4=CC=CN(C4=O)CC5=CC(=C(C=C5)F)F
Method in brief: (§1)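 K562 cells at 2×10^6 cells/mL were exposed to 10 μM compound for 30 min, then aliquots were heated for 3 min across 48°C-58°C, pooled, and extracted in PBS containing 0.5% NP-40 at 4°C. The supernatant after 21,000xg for 90 min was taken as soluble protein and measured by TMTpro 16plex LC-MS/MS with channel sums equalised. Thermal stability is reported relative to control samples, with values from duplicates. Fold changes are given on a log2 scale.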

The chains behind the UniProt entries cited, without tags or fusion partners. Where a name states a change or a piece, a line headed by the entry shows the natural chain unless it says otherwise.
UniProt Q96BI1: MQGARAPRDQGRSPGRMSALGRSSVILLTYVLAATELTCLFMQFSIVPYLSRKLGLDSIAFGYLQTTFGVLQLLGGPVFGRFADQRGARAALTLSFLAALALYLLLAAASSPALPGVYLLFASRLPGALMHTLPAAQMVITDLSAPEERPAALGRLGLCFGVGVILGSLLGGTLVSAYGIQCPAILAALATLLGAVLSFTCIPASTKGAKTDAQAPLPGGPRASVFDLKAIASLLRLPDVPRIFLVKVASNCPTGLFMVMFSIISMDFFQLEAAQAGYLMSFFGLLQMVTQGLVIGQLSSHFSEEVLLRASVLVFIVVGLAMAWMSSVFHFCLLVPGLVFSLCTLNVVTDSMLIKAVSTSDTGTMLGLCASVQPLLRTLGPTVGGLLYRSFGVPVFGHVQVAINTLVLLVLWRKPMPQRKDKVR
UniProt Q9BZD2: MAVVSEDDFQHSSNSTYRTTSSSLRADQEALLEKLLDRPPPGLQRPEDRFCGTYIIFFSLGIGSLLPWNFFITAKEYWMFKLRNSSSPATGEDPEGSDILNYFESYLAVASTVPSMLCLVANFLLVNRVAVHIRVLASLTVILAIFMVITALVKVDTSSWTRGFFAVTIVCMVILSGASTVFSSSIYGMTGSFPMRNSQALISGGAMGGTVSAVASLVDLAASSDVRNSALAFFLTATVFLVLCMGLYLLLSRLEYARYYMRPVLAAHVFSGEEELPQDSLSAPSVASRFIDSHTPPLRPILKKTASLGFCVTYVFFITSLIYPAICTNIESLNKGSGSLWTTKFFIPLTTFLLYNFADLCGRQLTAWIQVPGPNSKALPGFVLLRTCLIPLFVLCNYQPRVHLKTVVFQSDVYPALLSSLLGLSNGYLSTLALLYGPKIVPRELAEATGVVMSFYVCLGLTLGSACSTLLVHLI
UniProt Q9BWU0: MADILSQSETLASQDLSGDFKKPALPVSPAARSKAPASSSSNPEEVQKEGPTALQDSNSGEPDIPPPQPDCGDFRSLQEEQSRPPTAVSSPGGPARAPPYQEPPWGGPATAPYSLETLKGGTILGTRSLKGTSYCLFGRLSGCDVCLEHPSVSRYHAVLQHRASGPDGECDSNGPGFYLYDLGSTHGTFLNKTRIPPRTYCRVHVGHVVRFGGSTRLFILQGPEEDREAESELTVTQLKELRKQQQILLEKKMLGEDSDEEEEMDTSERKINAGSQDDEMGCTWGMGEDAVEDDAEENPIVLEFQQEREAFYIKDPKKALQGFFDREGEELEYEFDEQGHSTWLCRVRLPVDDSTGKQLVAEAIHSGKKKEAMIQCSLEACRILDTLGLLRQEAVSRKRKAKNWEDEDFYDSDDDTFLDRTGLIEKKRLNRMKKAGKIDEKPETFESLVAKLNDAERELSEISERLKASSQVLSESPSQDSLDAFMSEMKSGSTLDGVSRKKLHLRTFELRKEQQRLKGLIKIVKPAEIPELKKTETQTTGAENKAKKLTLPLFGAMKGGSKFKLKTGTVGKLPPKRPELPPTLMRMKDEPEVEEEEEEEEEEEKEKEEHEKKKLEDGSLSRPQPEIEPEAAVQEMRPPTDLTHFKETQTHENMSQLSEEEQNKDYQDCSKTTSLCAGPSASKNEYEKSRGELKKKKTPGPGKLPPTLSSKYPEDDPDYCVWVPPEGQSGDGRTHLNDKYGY
UniProt P78381: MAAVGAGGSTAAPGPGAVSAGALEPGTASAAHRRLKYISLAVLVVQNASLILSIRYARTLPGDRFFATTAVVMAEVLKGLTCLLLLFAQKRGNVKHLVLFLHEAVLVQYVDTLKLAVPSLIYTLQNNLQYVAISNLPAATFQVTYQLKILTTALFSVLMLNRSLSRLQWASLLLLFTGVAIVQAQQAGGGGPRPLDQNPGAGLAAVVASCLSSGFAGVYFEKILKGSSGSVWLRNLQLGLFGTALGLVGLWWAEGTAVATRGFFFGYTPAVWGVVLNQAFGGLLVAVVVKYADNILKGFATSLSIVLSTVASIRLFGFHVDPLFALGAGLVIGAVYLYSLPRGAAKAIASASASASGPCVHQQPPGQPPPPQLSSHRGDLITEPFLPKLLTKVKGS
UniProt P53794: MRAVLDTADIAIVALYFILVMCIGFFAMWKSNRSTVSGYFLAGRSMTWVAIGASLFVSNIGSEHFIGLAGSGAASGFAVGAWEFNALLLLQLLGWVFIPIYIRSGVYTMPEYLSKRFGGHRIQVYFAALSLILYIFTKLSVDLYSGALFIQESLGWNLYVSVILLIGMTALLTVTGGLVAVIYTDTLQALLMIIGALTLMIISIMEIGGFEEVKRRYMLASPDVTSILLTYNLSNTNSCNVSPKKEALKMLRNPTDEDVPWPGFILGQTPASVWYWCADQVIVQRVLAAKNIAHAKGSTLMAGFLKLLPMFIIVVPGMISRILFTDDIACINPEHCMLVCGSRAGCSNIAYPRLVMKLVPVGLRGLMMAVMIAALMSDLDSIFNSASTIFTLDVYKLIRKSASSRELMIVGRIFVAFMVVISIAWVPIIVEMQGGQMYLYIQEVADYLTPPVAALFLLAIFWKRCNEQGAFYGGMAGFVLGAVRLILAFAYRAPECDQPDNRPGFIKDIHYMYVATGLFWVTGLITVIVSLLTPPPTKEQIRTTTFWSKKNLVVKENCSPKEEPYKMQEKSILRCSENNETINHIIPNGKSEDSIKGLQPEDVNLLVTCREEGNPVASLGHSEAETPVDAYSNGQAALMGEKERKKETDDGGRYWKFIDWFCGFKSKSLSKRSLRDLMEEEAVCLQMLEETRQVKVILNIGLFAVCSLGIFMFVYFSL
UniProt Q6XR72: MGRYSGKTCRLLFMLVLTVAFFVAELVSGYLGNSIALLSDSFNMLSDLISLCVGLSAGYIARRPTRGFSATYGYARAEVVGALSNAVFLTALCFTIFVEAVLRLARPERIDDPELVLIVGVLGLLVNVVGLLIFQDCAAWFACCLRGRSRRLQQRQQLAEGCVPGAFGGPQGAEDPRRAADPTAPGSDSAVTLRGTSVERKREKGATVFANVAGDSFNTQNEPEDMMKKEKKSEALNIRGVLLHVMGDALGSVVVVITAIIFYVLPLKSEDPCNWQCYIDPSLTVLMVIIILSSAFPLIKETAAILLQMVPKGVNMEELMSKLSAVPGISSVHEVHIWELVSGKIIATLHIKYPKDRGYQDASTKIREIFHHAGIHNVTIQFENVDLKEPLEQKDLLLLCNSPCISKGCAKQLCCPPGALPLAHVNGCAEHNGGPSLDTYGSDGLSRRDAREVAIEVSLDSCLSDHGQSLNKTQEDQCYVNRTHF
UniProt Q9H2X9: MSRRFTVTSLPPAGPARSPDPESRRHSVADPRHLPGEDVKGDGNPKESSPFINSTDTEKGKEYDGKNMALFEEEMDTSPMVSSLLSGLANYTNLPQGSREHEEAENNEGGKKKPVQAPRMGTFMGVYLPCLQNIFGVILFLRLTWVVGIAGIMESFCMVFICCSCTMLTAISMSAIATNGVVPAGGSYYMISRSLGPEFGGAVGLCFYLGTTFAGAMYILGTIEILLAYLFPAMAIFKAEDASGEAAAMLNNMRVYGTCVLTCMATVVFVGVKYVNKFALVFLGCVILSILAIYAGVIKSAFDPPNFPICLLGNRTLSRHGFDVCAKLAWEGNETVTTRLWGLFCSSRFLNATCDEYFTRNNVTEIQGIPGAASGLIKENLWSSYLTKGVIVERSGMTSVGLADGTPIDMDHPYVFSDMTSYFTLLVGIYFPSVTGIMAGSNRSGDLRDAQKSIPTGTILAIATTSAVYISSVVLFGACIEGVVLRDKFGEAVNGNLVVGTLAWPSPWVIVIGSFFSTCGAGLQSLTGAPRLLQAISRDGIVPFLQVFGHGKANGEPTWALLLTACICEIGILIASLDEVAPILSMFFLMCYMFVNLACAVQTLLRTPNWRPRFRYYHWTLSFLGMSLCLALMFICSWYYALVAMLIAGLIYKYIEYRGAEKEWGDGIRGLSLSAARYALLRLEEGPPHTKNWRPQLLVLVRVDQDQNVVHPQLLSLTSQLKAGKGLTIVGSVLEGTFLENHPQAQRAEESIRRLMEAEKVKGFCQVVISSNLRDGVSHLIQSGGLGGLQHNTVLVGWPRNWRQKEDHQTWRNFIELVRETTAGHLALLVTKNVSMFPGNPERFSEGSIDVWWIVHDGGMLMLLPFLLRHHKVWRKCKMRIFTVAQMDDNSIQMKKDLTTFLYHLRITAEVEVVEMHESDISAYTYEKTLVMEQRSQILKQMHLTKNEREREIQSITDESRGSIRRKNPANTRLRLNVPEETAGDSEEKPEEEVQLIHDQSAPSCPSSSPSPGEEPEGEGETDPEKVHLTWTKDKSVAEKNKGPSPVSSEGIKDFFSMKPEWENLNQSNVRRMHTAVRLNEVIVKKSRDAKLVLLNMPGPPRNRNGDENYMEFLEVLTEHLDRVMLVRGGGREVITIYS
UniProt Q8WUM9: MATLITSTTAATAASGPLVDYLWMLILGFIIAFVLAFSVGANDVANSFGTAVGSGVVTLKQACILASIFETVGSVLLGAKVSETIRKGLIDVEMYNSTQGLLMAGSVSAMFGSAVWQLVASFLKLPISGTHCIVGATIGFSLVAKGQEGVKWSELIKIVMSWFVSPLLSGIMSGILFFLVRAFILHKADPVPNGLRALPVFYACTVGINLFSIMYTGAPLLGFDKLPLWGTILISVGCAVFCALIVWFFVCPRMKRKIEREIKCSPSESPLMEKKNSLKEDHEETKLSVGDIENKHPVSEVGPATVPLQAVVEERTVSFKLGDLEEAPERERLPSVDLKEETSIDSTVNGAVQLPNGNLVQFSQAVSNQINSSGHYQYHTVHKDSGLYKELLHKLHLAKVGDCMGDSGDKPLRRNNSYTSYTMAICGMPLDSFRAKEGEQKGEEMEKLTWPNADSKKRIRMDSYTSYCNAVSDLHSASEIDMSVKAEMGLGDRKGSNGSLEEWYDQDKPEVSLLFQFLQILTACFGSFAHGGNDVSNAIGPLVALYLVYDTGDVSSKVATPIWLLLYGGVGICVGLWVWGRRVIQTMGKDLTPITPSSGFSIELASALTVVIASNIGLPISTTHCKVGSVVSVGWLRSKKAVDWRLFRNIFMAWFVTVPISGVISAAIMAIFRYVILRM
UniProt Q9H1N7: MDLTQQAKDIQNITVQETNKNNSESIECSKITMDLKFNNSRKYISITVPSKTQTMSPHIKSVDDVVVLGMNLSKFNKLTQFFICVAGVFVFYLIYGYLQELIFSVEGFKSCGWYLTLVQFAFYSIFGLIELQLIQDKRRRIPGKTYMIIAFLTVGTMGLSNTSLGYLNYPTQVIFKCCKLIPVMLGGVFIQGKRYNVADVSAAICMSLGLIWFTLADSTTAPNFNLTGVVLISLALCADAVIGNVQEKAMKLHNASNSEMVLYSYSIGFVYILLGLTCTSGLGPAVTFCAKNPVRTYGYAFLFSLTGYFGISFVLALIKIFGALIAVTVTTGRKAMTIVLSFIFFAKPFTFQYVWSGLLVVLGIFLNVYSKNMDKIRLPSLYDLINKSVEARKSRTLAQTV
UniProt Q9C0K1: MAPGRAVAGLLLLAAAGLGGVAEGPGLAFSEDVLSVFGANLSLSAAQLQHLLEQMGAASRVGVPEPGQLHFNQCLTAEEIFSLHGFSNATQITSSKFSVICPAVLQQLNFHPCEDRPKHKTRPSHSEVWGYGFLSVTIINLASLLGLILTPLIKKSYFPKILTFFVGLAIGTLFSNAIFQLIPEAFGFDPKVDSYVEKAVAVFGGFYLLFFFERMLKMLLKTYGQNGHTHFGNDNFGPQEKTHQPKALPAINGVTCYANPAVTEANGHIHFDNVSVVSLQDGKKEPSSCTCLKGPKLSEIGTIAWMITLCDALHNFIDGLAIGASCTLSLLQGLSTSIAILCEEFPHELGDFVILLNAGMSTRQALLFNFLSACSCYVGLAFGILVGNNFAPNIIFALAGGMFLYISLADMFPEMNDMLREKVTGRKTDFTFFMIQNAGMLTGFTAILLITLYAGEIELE
UniProt Q15043: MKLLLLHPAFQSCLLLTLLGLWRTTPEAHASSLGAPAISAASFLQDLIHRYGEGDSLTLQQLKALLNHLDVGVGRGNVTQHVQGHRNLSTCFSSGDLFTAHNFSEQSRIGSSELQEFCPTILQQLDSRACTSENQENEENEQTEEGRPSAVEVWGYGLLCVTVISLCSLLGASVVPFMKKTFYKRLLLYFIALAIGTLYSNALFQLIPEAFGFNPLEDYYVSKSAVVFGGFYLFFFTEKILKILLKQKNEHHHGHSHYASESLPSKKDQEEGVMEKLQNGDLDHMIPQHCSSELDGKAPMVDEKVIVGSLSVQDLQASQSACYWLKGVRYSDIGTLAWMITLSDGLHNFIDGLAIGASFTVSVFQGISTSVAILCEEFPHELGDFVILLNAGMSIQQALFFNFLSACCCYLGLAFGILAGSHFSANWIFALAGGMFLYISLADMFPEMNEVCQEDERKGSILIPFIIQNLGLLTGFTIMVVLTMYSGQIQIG

[2] = compound: CC1=C(SC2=C1C(=N[C@H](C3=NN=C(N32)C)CC(=O)N)C4=CC=C(C=C4)Cl)C
Method in brief: as §1

[3] = compound: CC1=C2C(=CC=C1)N=C(N(C2=O)C3=CC=CC=C3C)CN4C=NC5=C(N=CN=C54)N
Method in brief: as §1

[4] = compound: Cc1sc2c(c1C)C(c1ccc(Cl)cc1)=N[C@@H](CC(=O)OC(C)(C)C)c1nnc(C)n1-2
Method in brief: as §1

[5] = compound: c1ccc([C@@H]2C[C@H]2NC2CCNCC2)cc1
Method in brief: as §1

Measured: log2 fold change

SLC22A18 (UniProt Q96BI1)
inactive: [1] 0.006 | [2] 0.027 | [3] 0.106 | [4] -0.09 | [5] -0.017

SLC29A3 (UniProt Q9BZD2)
inactive: [1] 0.036 | [2] 0.033 | [3] 0.044 | [4] -0.352 | [5] 0.139

SLC40A1 (UniProt Q9NP59)
inactive: [1] -0.11 | [2] 0.109 | [3] -0.049 | [4] 0.018 | [5] 0.02

SLC25A21 (UniProt Q9BQT8)
inactive: [1] 0.01 | [2] -0.011 | [3] 0 | [4] 0.01 | [5] 0.068

SLC45A4 isoform 3 (UniProt Q5BKX6)
inactive: [1] 0.012 | [2] -0.044 | [3] 0.196 | [4] 0.091 | [5] 0.183

SLC2A3 (UniProt P11169)
inactive: [1] 0.007 | [2] 0.04 | [3] 0.002 | [4] -0.002 | [5] 0.049

SLC4A1AP (UniProt Q9BWU0)
inactive: [1] 0.019 | [2] 0.049 | [3] 0 | [4] 0.012 | [5] 0.015

SLC37A4 isoform 2 (UniProt O43826)
inactive: [1] 0.012 | [2] 0.071 | [3] -0.007 | [4] 0.016 | [5] 0.054

SLAIN2 (UniProt Q9P270)
inactive: [1] -0.016 | [2] 0.003 | [3] -0.013 | [4] 0.014 | [5] 0.04

Three consecutive entries already listed:
SLC4A1AP (UniProt Q9BWU0)
inactive: [1] 0.019 | [2] 0.049 | [3] 0 | [4] 0.012 | [5] 0.015

SLC37A4 isoform 2 (UniProt O43826)
inactive: [1] 0.012 | [2] 0.071 | [3] -0.007 | [4] 0.016 | [5] 0.054

SLAIN2 (UniProt Q9P270)
inactive: [1] -0.016 | [2] 0.003 | [3] -0.013 | [4] 0.014 | [5] 0.04

The listing continues:

SLC25A4 (UniProt P12235)
inactive: [1] -0.001 | [2] -0.034 | [3] 0.062 | [4] -0.049 | [5] 0.05

SLC25A40 (UniProt Q8TBP6)
inactive: [1] 0.035 | [2] 0.033 | [3] -0.025 | [4] -0.061 | [5] 0.002

SLC35A2 isoform 4 (UniProt P78381)
inactive: [1] 0.008 | [2] 0 | [3] 0.151 | [4] -0.087 | [5] 0.076

SLC25A26 (UniProt Q70HW3)
inactive: [1] -0.041 | [2] 0 | [3] 0.049 | [4] 0.05 | [5] 0.042

SLC29A1 isoform 2 (UniProt Q99808)
inactive: [1] 0.017 | [2] 0.03 | [3] 0.008 | [4] -0.005 | [5] 0.055

SLC35B2 (UniProt Q8TB61)
inactive: [1] 0.017 | [2] 0.024 | [3] 0.024 | [4] -0.033 | [5] 0.01

SLC25A3 isoform 2 (UniProt Q00325)
inactive: [1] 0.025 | [2] 0.01 | [3] -0.009 | [4] -0.008 | [5] -0.024

SLC25A33 (UniProt Q9BSK2)
inactive: [1] 0.02 | [2] 0.015 | [3] 0.072 | [4] -0.022 | [5] -0.008

SLC25A6 (UniProt P12236)
inactive: [1] 0.026 | [2] 0.011 | [3] 0.052 | [4] -0.032 | [5] 0.015

SLC15A4 (UniProt Q8N697)
inactive: [1] -0.013 | [2] 0.027 | [3] 0.01 | [4] -0.087 | [5] -0.066

SLBP (UniProt Q14493)
inactive: [1] -0.092 | [2] -0.056 | [3] 0.042 | [4] 0.059 | [5] 0.034

SLC5A3 (UniProt P53794)
inactive: [1] 0.014 | [2] 0.021 | [3] 0.019 | [4] 0.013 | [5] -0.033

SLC27A1 (UniProt Q6PCB7)
inactive: [1] -0.02 | [2] 0.161 | [3] 0.293 | [4] 0.11 | [5] -0.029

SLC25A42 (UniProt Q86VD7)
inactive: [1] 0.073 | [2] 0.051 | [3] -0.019 | [4] -0.005 | [5] 0.003

SLC26A6 (UniProt Q9BXS9)
inactive: [1] -0.023 | [2] 0.047 | [3] -0.057 | [4] 0.051 | [5] 0.033

SLC30A9 (UniProt Q6PML9)
inactive: [1] -0.034 | [2] -0.04 | [3] 0.141 | [4] -0.027 | [5] -0.023

SLC30A10 (UniProt Q6XR72)
inactive: [1] 0.066 | [2] -0.005 | [3] 0.113 | [4] -0.003 | [5] 0.059

SLC25A16 (UniProt P16260)
inactive: [1] -0.037 | [2] 0.005 | [3] 0.118 | [4] -0.054 | [5] 0.01

SLC25A12 (UniProt O75746)
inactive: [1] 0.021 | [2] 0.015 | [3] 0.022 | [4] 0.003 | [5] 0.045

SLC12A5 (UniProt Q9H2X9)
inactive: [1] 0.102 | [2] 0.099 | [3] 0.066 | [4] -0.064 | [5] 0.055

SLC30A1 (UniProt Q9Y6M5)
inactive: [1] 0.001 | [2] 0.048 | [3] 0.015 | [4] 0.013 | [5] 0.048

SLC20A1 (UniProt Q8WUM9)
inactive: [1] 0.002 | [2] 0.01 | [3] 0.063 | [4] -0.018 | [5] 0.014

SLC10A4 (UniProt Q96EP9)
inactive: [1] -0.056 | [2] -0.019 | [3] 0.217 | [4] 0.081 | [5] -0.06

SLC25A19 (UniProt Q9HC21)
inactive: [1] 0.026 | [2] -0.011 | [3] 0.011 | [4] -0.027 | [5] 0.031

SLC35B3 (UniProt Q9H1N7)
inactive: [1] 0.03 | [2] 0.208 | [3] 0.051 | [4] -0.071 | [5] -0.023

SLC35A1 (UniProt P78382)
inactive: [1] -0.046 | [2] -0.108 | [3] 0.05 | [4] -0.07 | [5] 0.013

SLC38A9 (UniProt Q8NBW4)
inactive: [1] 0.053 | [2] -0.019 | [3] 0.065 | [4] -0.014 | [5] 0.042

SLC25A32 (UniProt Q9H2D1)
inactive: [1] 0.049 | [2] 0.079 | [3] 0.016 | [4] -0.053 | [5] 0.059

SLC25A24 (UniProt Q6NUK1)
inactive: [1] 0.022 | [2] -0.004 | [3] 0.025 | [4] -0.016 | [5] 0.033

SLC25A20 (UniProt O43772)
inactive: [1] 0.012 | [2] 0.034 | [3] 0.042 | [4] -0.006 | [5] 0.01

SLC39A8 (UniProt Q9C0K1)
inactive: [1] -0.032 | [2] -0.111 | [3] -0.043 | [4] 0.051 | [5] -0.017

SLC20A2 (UniProt Q08357)
inactive: [1] 0.031 | [2] 0 | [3] 0.028 | [4] 0.039 | [5] 0.058

SLC31A1 (UniProt O15431)
inactive: [1] 0.019 | [2] 0.088 | [3] 0.056 | [4] -0.059 | [5] 0.004

SLC7A11 (UniProt Q9UPY5)
inactive: [1] 0.011 | [2] 0.053 | [3] 0.127 | [4] -0.022 | [5] 0

SLC5A6 (UniProt Q9Y289)
inactive: [1] 0.022 | [2] 0.096 | [3] -0.03 | [4] 0.025 | [5] -0.029

SLC39A14 (UniProt Q15043)
inactive: [1] 0.024 | [2] -0.012 | [3] 0.012 | [4] 0.054 | [5] 0.019

SLC18B1 (UniProt Q6NT16)
inactive: [1] 0.015 | [2] 0.028 | [3] 0.061 | [4] 0.009 | [5] -0.039

SLC25A17 (UniProt O43808)
inactive: [1] 0.011 | [2] 0.012 | [3] -0.046 | [4] -0.025 | [5] 0

SLC35B1 isoform 2 (UniProt P78383)
inactive: [1] -0.166 | [2] -0.233 | [3] 0.146 | [4] -0.215 | [5] 0.027

SLC35F6 (UniProt Q8N357)
inactive: [1] -0.034 | [2] -0.045 | [3] 0.064 | [4] -0.057 | [5] 0.067

SLC25A22 (UniProt Q9H936)
inactive: [1] 0.024 | [2] -0.006 | [3] 0.05 | [4] 0.045 | [5] 0.022

SLC35F2 (UniProt Q8IXU6)
inactive: [1] 0.017 | [2] -0.013 | [3] 0.019 | [4] -0.079 | [5] -0.017

SLC4A1 (UniProt P02730)
inactive: [1] 0.067 | [2] -0.014 | [3] 0.184 | [4] 0.028 | [5] 0.093

Source: the supplement of paper PMC10849652
